The results in this text go back to article PMC7819943, “Rice protein-binding microarrays: a tool to detect cis-acting elements near promoter regions in rice”.

Chains of the proteins cited; added tags and fusions are not shown.
UniProt Q0JBA9, entry or part of it: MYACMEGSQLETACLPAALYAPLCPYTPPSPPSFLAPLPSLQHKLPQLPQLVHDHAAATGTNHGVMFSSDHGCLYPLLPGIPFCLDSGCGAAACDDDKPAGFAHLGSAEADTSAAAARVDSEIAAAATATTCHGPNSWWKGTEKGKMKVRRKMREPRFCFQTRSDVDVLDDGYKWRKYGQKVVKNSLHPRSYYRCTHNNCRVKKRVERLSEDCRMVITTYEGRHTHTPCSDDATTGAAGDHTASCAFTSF

The other results are listed elsewhere or left out.

This test has as its target OsWRKY34 (Oryza sativa, UniProt Q0JBA9 1-250). Description: protein-binding microarray (RPBM); PBS, 2% BSA, 51.3 ng/ul salmon testes DNA, 50 uM zinc acetate, 200 nM TF, 25 C, 1 h; high values mean tight binding. The settings on record: protein: recombinant; tags: N-terminal polyhistidine and DsRed monomer fusion (pET32a); label: CyDye5-dUTP incorporated in the synthesized complementary strand; 3' TTTTT single-stranded linker to array surface; dsDNA, one strand shown. The method, boiled down: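 The binding signal is fluorescence intensity per feature, in arbitrary units, read on an Axon 4000B scanner. Polyhistidine- and DsRed-tagged transcription factors (N-terminal fusions) from E. coli BL21-CodonPlus were purified on Ni–NTA and applied at 200 nM for 1 h at 25 °C to a double-stranded, BSA-blocked custom Agilent array in buffer with 50 µM zinc acetate.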
For the sequence “CCTGCCCTGTTTTCTACTGTTTGGCACGCACATTTTCATGCGGAGTCACCTAGTGCAG”, the binding signal is 8200 fluorescence intensity (a.u.). As for “AGCTATTTTACACCACGGTTTATTTTCTAGACATTTACTTCGGAGTCACCTAGTGCAG”, the binding signal is 9500 fluorescence intensity (a.u.). To “ATGTACGCACGAACCCATTGCAGATCGCGACACGTTTCCGCGGAGTCACCTAGTGCAG” belongs 9670 fluorescence intensity (a.u.); to “GGAGGTTTGCTTGTTATGGTTCATGGTTCTTTTGATTAGTCGGAGTCACCTAGTGCAG”, 8130 fluorescence intensity (a.u.). The figure for “TTATTGATGGTCAAAGTTATTAAAGTTTGACCTCAAATTTCGGAGTCACCTAGTGCAG” is 8400 fluorescence intensity (a.u.); for “GGGCCCACCCATCACCCCTAACCTAACCGCCGTCGATTCACGGAGTCACCTAGTGCAG” it is 8850 fluorescence intensity (a.u.); for “GGCAACCCAACCCTCTGCTGCTACCTCCACCTAACCCAAACGGAGTCACCTAGTGCAG” it is 9180 fluorescence intensity (a.u.).

For “GTGGGGTTTTCGATGGTGTTTCATTCTTTTTCTCAATGTACGGAGTCACCTAGTGCAG”, the binding signal was 20300 fluorescence intensity (a.u.). As for “CCGCACCTCTCTCTACACGCACGCGTCTCTCCCATCTCCCCGGAGTCACCTAGTGCAG”, the binding signal is 9030 fluorescence intensity (a.u.).

As for “TATGTGCTAATTAACCGTTCCATTTTCCGTGGTGCACAGCCGGAGTCACCTAGTGCAG”, the binding signal is 8730 fluorescence intensity (a.u.). The figure for “ATTGGGACAAACGCCTTCACCTTCTCCATCTGGCTCACCACGGAGTCACCTAGTGCAG” is 8150 fluorescence intensity (a.u.); for “TTTTGTTTCCGTAAGTTCTCCACCGGCTTCCCTCAATTTACGGAGTCACCTAGTGCAG” it is 9280 fluorescence intensity (a.u.); for “CTTGGCTCTTCATGGCCGCCGCTGCTGCCAACGACGCCGACGGAGTCACCTAGTGCAG” it is 9940 fluorescence intensity (a.u.). Consider “CAGACCACCCAACTCTACTTCTTCTTCTTCTTCTTCCATCCGGAGTCACCTAGTGCAG”, for which the binding signal is 9280 fluorescence intensity (a.u.). In the case of “TCACCTCGTTTTACGTATCTTCCCAATCTTCTCTATCTCACGGAGTCACCTAGTGCAG”, the binding signal is 9140 fluorescence intensity (a.u.). With “GCCGCCGCCTCGCCTCCCGCACCGCCCTCGCCGCCGCCAACGGAGTCACCTAGTGCAG”, the binding signal was 8840 fluorescence intensity (a.u.).

On to “TGGCCGGATGTGGTGTGCAGGGGAGACTCGTCCACCGGCGCGGAGTCACCTAGTGCAG”, for which the binding signal is 8410 fluorescence intensity (a.u.). “AGCTCGTGATTAGCAGATTGCATTTAGTGGGTGGGCTGTCCGGAGTCACCTAGTGCAG”: the binding signal was 8410 fluorescence intensity (a.u.). To “TTCTTGTTGTCCATCTCCATCTCGTCATACACCTCCCAAGCGGAGTCACCTAGTGCAG” belongs 10800 fluorescence intensity (a.u.); to “ACGATGACACCACCTTGCATATCCAGATGCCTCTGTTTGACGGAGTCACCTAGTGCAG”, 9810 fluorescence intensity (a.u.). Take “GCCTTGCTTTTCCTTGTCGAGATTACTCTAGCAATTTAATCGGAGTCACCTAGTGCAG”: the binding signal is 9420 fluorescence intensity (a.u.). Consider “CCACGCGAGCGCTCGCGCCGCGCGAACCCAACCTTGCTCGCGGAGTCACCTAGTGCAG”, for which the binding signal is 8250 fluorescence intensity (a.u.). Take “TTCGACACCGGTAATCTTGCTACCTGTCTTTTTTTTTTATCGGAGTCACCTAGTGCAG”: the binding signal was 11500 fluorescence intensity (a.u.). For the sequence “TGTCATTTTTGTTTCTCAATGTGTATATCAAATTTGTTAACGGAGTCACCTAGTGCAG”, the binding signal is 8070 fluorescence intensity (a.u.). As for “TATTTGTTTTGTTGTTGGCTTGTTATCCTCTATTACACTGCGGAGTCACCTAGTGCAG”, the binding signal was 8890 fluorescence intensity (a.u.).

“CGTTCGTGTCGTGTGCACGCTGTTCGTATCCGTATCATATCGGAGTCACCTAGTGCAG”: the binding signal is 10100 fluorescence intensity (a.u.).

“GTGAAACTTTTTTTTTTTTTTGCGGGGTTCTCACTCTGACCGGAGTCACCTAGTGCAG”: the binding signal is 11000 fluorescence intensity (a.u.). As for “AGTTAATTTGTACCAAACTCTTAAGCATGGAGGATTTGACCGGAGTCACCTAGTGCAG”, the binding signal is 8210 fluorescence intensity (a.u.). Turning to “ACGTAACACCTAGCAATTTTCTTCTCGCGAAATAAACAGTCGGAGTCACCTAGTGCAG”, the binding signal was 8500 fluorescence intensity (a.u.). Turning to “GCCCATTTGTTCTTGATCCTATTCTTTGATTCTTTTGTACCGGAGTCACCTAGTGCAG”, the binding signal was 8920 fluorescence intensity (a.u.).

Take “AAAAACGCCCCTTACTTCCAGTTCTCACGGCTTAGTTTTCCGGAGTCACCTAGTGCAG”: the binding signal was 8520 fluorescence intensity (a.u.). To “ACATTGAATTGCACAAACGAATTCCTTGCATCCTCCTCGTCGGAGTCACCTAGTGCAG” belongs 8720 fluorescence intensity (a.u.); to “GCTTCCTGTTGTGCTGTAGCGCTGCTGCCGCCCGTTGCGCCGGAGTCACCTAGTGCAG”, 8150 fluorescence intensity (a.u.). In the case of “CCCTATCCTATATATCGAGCTATCACTACCTACCTCCACCCGGAGTCACCTAGTGCAG”, the binding signal was 8750 fluorescence intensity (a.u.). With “ATATTTTGCCTGTACTGTTTGACAACTCATCTTATTCAAACGGAGTCACCTAGTGCAG”, the binding signal is 9020 fluorescence intensity (a.u.). Regarding “AATCATTTATTATTGTCGGCACATTTTGCAATTTTTGATACGGAGTCACCTAGTGCAG”, the binding signal is 10200 fluorescence intensity (a.u.).

With “AACACCACGCCGCGCGCTCCACGGCAACGCAACGCAGGAACGGAGTCACCTAGTGCAG”, the binding signal was 8720 fluorescence intensity (a.u.). Consider “ACCACCGTTAACCTATCGTCACCGTCCGCATGAACAAACCCGGAGTCACCTAGTGCAG”, for which the binding signal is 12900 fluorescence intensity (a.u.). As to “GCCACCCGCCCGCCGCCGCCGCCGCCGCCGCCGCCGAGCACGGAGTCACCTAGTGCAG”, the binding signal was 10600 fluorescence intensity (a.u.). Take “CACCTTTCTGCAGTTCTGATTCCATTCTTGCAAGTTCTAGCGGAGTCACCTAGTGCAG”: the binding signal was 8400 fluorescence intensity (a.u.). Regarding “GCCTGTTCATTTCACATTTTCACTGCTACGTACTCGATCACGGAGTCACCTAGTGCAG”, the binding signal is 10200 fluorescence intensity (a.u.). Regarding “TGCTCCCTTGCCCACGCCGTCGCCTTTGCATCGCATCCTTCGGAGTCACCTAGTGCAG”, the binding signal is 8440 fluorescence intensity (a.u.).
